In PubChem BioAssay AID493014 (National Center for Advancing Translational Sciences (NCATS), 2011):
The other results are listed elsewhere or left out. Shown are side measurements of this screen, not its main read-out; they come without a call. Compounds called inactive in the main read-out are mostly missing here. The note in brackets gives the kind of curve behind each potency; many fits are weak.

Experiment: qHTS Assay to Find Inhibitors of Chronic Active B-Cell Receptor Signaling
Conditions: ABC-DLBCL IkBa-CBG/CBR reporter, luminescence ratio (green luciferase fused to IkBa over red control in TMD8 lymphoma cells), 4 h
In short: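 Compounds up to 46 uM were incubated four hours with TMD8 cells whose green CBG68 luciferase is fused to IkappaBalpha; red CBR luminescence normalised the signal, and concentration-effect curves were fitted to fusion, red and ratio data.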

[1] = measured here: CBR red luminescence, cell number
[2] = measured here: IkBa-CBG green luminescence

Question: What does the source list for CC(=O)c1c(C)[nH]c(C(=O)Nc2cccc(S(=O)(=O)N3CCCCC3)c2)c1C?
Answer: AC50 [1]: 23.1 µM [rising, single point]; AC50 [2]: 20.6 µM [falling, single point]

Question: For Cc1noc(C(=O)Nc2ccc3c(c2)OCO3)c1Cl, which AC50 [1] is on record?
Answer: 29.1 µM [falling, single point]

Question: For CS(=O)(=O)c1ccc(NC(=O)CCN2C(=O)C3CC=CCC3C2=O)cc1 (configuration not stated), which AC50 [1] is on record?
Answer: 29.1 µM [falling, single point]

Question: Which AC50 [1] does the source give for O=C(Nc1ccc2c(c1)OCCO2)c1ccc(Cl)cc1 here?
Answer: 11.2 µM [falling, partial curve]

Question: Which AC50 [1] does the source give for O=C(O)c1ccc(CSc2nc3ccccc3c(=O)n2-c2ccccc2)cc1 here?
Answer: 17.8 µM [rising, single point]

Question: Which AC50 [1] does the source give for O=C(Sc1cccc2cccnc12)c1ccccc1Br here?
Answer: 35.5 µM [falling, single point]

Question: For CCOC(=O)N1CCC(NC(=O)C2CCN(S(=O)(=O)c3c(C)noc3C)CC2)CC1, which AC50 [1] is on record?
Answer: 4.11 µM [rising, full curve, poor fit]

Question: With COc1cccc(OC)c1OCCCCCCN1CCN(C)CC1 as the compound, how does the AC50 [1] read?
Answer: 35.5 µM [rising, single point]

Question: With Cn1c2ccccc2c2cc(/C=N/NC(=O)c3ccc(O)cc3O)ccc21 as the compound, how does the AC50 [1] read?
Answer: 35.5 µM [falling, single point]

Question: With CC(C)COC(=O)Nc1ccc(C(=O)O)cc1 as the compound, how does the AC50 [1] read?
Answer: 3.16 µM [falling, partial curve, poor fit]

Question: For CCN(CC(=O)NCc1cccs1)C(=O)c1ccc(OC)c(OC)c1, which AC50 [1] is on record?
Answer: 14.6 µM [rising, partial curve, poor fit]

Question: For O=C(NC1CCSc2ccccc21)c1ccc(C(F)(F)F)cc1 (configuration not stated), which AC50 [1] is on record?
Answer: 0.501 µM [falling, full curve, poor fit]

Question: Which AC50 [1] does the source give for COCCn1c(C)cc(C(=O)COC(=O)CNC(=O)c2ccco2)c1C here?
Answer: 29.1 µM [rising, partial curve, poor fit]

Question: Which AC50 [1] does the source give for COc1ccccc1NC(=O)C1CC(=O)N(c2ccc(F)cc2)C1 (configuration not stated) here?
Answer: 5.17 µM [rising, full curve]

Question: With Cc1ccc(S(=O)(=O)NCCNc2ccc([N+](=O)[O-])cc2C(F)(F)F)cc1 as the compound, how does the AC50 [1] read?
Answer: 2 µM [falling, partial curve, poor fit]

Question: With CN1CCN(CCCNC(=O)CCC(=O)N2CCOc3ccccc32)CC1 as the compound, how does the AC50 [1] read?
Answer: 3.16 µM [rising, partial curve, poor fit]

Question: Which AC50 [1] does the source give for Cc1ccccc1NC(=O)Cc1nc(COC(=O)c2ccc(S(C)(=O)=O)c([N+](=O)[O-])c2)cs1 here?
Answer: 25.9 µM [falling, single point]

Question: And the AC50 [2]?
Answer: 32.6 µM [rising, partial curve, poor fit]

Question: For COCc1cc(C)nc(SCc2ccccc2Cl)c1C#N, which AC50 [1] is on record?
Answer: 12.6 µM [rising, partial curve, poor fit]

Question: Which AC50 [1] does the source give for CCn1cc(C2=NC(C(C)C)CO2)c2ccccc21 (configuration not stated) here?
Answer: 8.2 µM [rising, partial curve]

Question: For CCc1nnc(NC(=O)CN2CCN(c3ccccc3OC)CC2)s1, which AC50 [1] is on record?
Answer: 1.26 µM [falling, full curve, poor fit]

Question: With CCN(C(=O)c1ccc2c(Cl)c3c(nc2c1)CCC3)c1ccc(C)c(C)c1 as the compound, how does the AC50 [1] read?
Answer: 23.1 µM [falling, partial curve, poor fit]

Question: For CN1C(=O)C(O)(CC(=O)/C=C\c2ccc3c(c2)OCO3)c2ccccc21 (configuration not stated), which AC50 [1] is on record?
Answer: 25.1 µM [falling, single point]

Question: For Cc1ccc(S(=O)(=O)N(CC2CO2)c2cc(Cl)ccc2Cl)cc1 (configuration not stated), which AC50 [1] is on record?
Answer: 8.91 µM [falling, partial curve, poor fit]

Question: For O=C(NNC1CC(=O)N(c2ccccc2)C1=O)c1ccccc1Cl (configuration not stated), which AC50 [1] is on record?
Answer: 0.316 µM [falling, full curve, poor fit]

Question: Which AC50 [1] does the source give for CCOC(=O)C1CCCCN1C(=O)CCc1c(C)nc2cc(-c3ccccc3)nn2c1C (configuration not stated) here?
Answer: 1.64 µM [falling, partial curve, poor fit]

Question: Which AC50 [1] does the source give for CCNc1nc(NCC)n2c(SCc3nc4ccccc4c(=O)[nH]3)nnc2n1 here?
Answer: 29.1 µM [rising, partial curve, poor fit]

Question: With COc1ccc(-c2cc(C(=O)Nc3cc(C)on3)c3ccccc3n2)c(OC)c1 as the compound, how does the AC50 [1] read?
Answer: 7.94 µM [falling, partial curve, poor fit]

Question: With COC(=O)c1sccc1-n1cc(C#N)c(=O)n(C)c1=O as the compound, how does the AC50 [1] read?
Answer: 3.55 µM [rising, partial curve, poor fit]

Question: With Cc1cc(CN2CCCC(C(=O)Nc3ccc(-c4nc5ccccc5[nH]4)cc3)C2)n[nH]1 (configuration not stated) as the compound, how does the AC50 [1] read?
Answer: 11.2 µM [falling, partial curve]

Question: For O=C(NC(CSCc1ccccc1)C(=O)N/N=C/c1ccc(O)cc1O)c1ccc([N+](=O)[O-])cc1 (configuration not stated), which AC50 [1] is on record?
Answer: 8.2 µM [falling, partial curve]

Question: What about the AC50 [2] of the same compound?
Answer: 20.6 µM [rising, partial curve, poor fit]

Question: With CC(C)c1ccccc1OCC(=O)Nc1cc(S(=O)(=O)N2CCOCC2)ccc1N1CCCC1 as the compound, how does the AC50 [1] read?
Answer: 13 µM [falling, single point]

Question: For CC(=O)c1c(C)[nH]c(C(=O)OCc2ccccc2)c1C, which AC50 [1] is on record?
Answer: 0.58 µM [rising, full curve]

Question: With O=C(CSc1nccn1-c1ccccc1)NCc1ccc2c(c1)OCO2 as the compound, how does the AC50 [1] read?
Answer: 16.4 µM [falling, partial curve, poor fit]

Question: Which AC50 [1] does the source give for CC(C)NC(NC(=O)/C=C/c1ccccc1)C(Cl)(Cl)Cl (configuration not stated) here?
Answer: 7.94 µM [rising, partial curve, poor fit]

Question: For CCOc1cc(C(=O)N(C)Cc2cc3ccccc3[nH]c2=O)cc(OCC)c1OCC, which AC50 [1] is on record?
Answer: 23.1 µM [rising, single point]

Question: Which AC50 [1] does the source give for COc1ccc(CS(=O)/C(Cl)=C(/Cl)C(=O)Nc2ccc(OC)nc2)cc1 (configuration not stated) here?
Answer: 2 µM [falling, full curve]

Question: And the AC50 [2]?
Answer: 2.51 µM [rising, full curve, poor fit]

Question: For COc1ccccc1C(=O)Nc1ccc(-c2nnn(CC(=O)N3CCN(C(=O)c4ccco4)CC3)n2)cc1, which AC50 [1] is on record?
Answer: 1 µM [falling, partial curve, poor fit]

Question: With O=C(Nc1nc(-c2ccccn2)cs1)c1ccco1 as the compound, how does the AC50 [1] read?
Answer: 15.8 µM [falling, single point]

Question: For COc1ccc(-c2nc3ccccn3c2NCc2ccc3c(c2)OCO3)cc1, which AC50 [1] is on record?
Answer: 29.1 µM [falling, single point]

Question: For O=C(NNC(=O)c1cc2cc(Br)ccc2oc1=O)c1ccc(O)cc1, which AC50 [1] is on record?
Answer: 0.891 µM [falling, full curve]

Question: Which AC50 [1] does the source give for O=C(/C=C/Nc1cccc(C(F)(F)F)c1)c1ccc(Oc2ncccn2)cc1 here?
Answer: 0.631 µM [rising, full curve]

Question: With CCOc1ccc(C(=O)C2CCN(CC(=O)Nc3ccccc3N3CCOCC3)CC2)cc1 as the compound, how does the AC50 [1] read?
Answer: 12.6 µM [rising, partial curve, poor fit]

Question: For CCn1ncc(CN2CCN(Cc3cccc(OC)c3)C(CCO)C2)c1C (configuration not stated), which AC50 [1] is on record?
Answer: 35.5 µM [falling, single point]

Question: Which AC50 [1] does the source give for Cc1nc2ccccc2n1CCOc1ccc(F)cc1 here?
Answer: 3.55 µM [rising, partial curve, poor fit]

Question: Which AC50 [1] does the source give for CC(OC(=O)CSc1ccccc1)C(=O)NC1CCCCC1C (configuration not stated) here?
Answer: 0.651 µM [falling, full curve]

Question: Which AC50 [1] does the source give for CCN(CC)S(=O)(=O)c1cc([N+](=O)[O-])ccc1NNC(=O)Nc1ccc(F)cc1 here?
Answer: 2.31 µM [falling, partial curve, poor fit]

Question: For CC[C@]12c3[nH]c4cc(CCC(=O)N(C)C)ccc4c3CCN1C(=O)[C@@H](CC(=O)NCc1ccco1)C[C@@H]2C(=O)N1CCN(C(=O)C2CC2)CC1, which AC50 [1] is on record?
Answer: 14.6 µM [rising, partial curve]

Question: Which AC50 [1] does the source give for O=C(NCc1ccc(Cl)cc1)c1noc2c1CCCCC2 here?
Answer: 6.51 µM [rising, single point]

Question: With N/C(=N\OC(=O)CCc1ccccc1)c1ccc(Cl)cc1 as the compound, how does the AC50 [1] read?
Answer: 2.51 µM [rising, full curve]

Question: With O=[N+]([O-])c1cccn2cc(-c3ccc(Br)cc3)nc12 as the compound, how does the AC50 [1] read?
Answer: 15.8 µM [rising, single point]

Question: For COc1ccc(CCn2c(C)cc(C(=O)COC(=O)c3cnc(C)cn3)c2C)cc1, which AC50 [1] is on record?
Answer: 8.2 µM [rising, partial curve]

Question: What does the source list for C/C(=N\NC(=S)Nc1c(C)cccc1C)c1ccc(O)cc1?
Answer: AC50 [1]: 20 µM [rising, single point]; AC50 [2]: 35.5 µM [falling, partial curve, poor fit]

Question: Which AC50 [1] does the source give for NC(=O)CCS(=O)(=O)CCN1CCCCC1 here?
Answer: 0.146 µM [falling, full curve, poor fit]

Question: For O=C(Cn1cc(C(=O)c2cccs2)c2ccccc21)NCc1ccc2c(c1)OCO2, which AC50 [1] is on record?
Answer: 29.1 µM [falling, single point]

Question: Which AC50 [1] does the source give for CC(C)C(NC(=O)c1ccc(C(C)(C)C)cc1)C(=O)Nc1cccc(S(N)(=O)=O)c1 (configuration not stated) here?
Answer: 6.31 µM [falling, single point]

Question: With CCOC(=O)C(NC(=O)Nc1ccc(Cl)cn1)(Oc1ccccc1)C(F)(F)F (configuration not stated) as the compound, how does the AC50 [1] read?
Answer: 29.1 µM [rising, single point]

Question: And the AC50 [2]?
Answer: 3.66 µM [falling, partial curve, poor fit]

Question: For Cc1ccc(NC(=O)Nc2ccc(F)cc2)nc1, which AC50 [1] is on record?
Answer: 29.1 µM [falling, single point]

Question: For O=C(Cc1ccc(-n2cccc2)cc1)NCc1ccccc1Cl, which AC50 [1] is on record?
Answer: 29.1 µM [rising, single point]

Question: Which AC50 [1] does the source give for O=C(CN1C(=O)S/C(=C\c2ccccc2)C1=O)NCCCn1ccnc1 here?
Answer: 3.98 µM [falling, full curve]

Question: For CC(c1ccccc1)C1CC(=O)N(C2CCCCC2)C1=O (configuration not stated), which AC50 [1] is on record?
Answer: 25.9 µM [rising, single point]

Question: For Cn1c2ccccc2c(=O)c2ccc(C#CC3(O)CCCCC3)cc21, which AC50 [1] is on record?
Answer: 4.47 µM [falling, full curve]
